Binding data for one substance are collected here from publication PMC5183592.

Sequences of proteins named here, by UniProt entry; tags and fusion partners are left off. Residues count along the entry.
UniProt P07174, residues 30-425: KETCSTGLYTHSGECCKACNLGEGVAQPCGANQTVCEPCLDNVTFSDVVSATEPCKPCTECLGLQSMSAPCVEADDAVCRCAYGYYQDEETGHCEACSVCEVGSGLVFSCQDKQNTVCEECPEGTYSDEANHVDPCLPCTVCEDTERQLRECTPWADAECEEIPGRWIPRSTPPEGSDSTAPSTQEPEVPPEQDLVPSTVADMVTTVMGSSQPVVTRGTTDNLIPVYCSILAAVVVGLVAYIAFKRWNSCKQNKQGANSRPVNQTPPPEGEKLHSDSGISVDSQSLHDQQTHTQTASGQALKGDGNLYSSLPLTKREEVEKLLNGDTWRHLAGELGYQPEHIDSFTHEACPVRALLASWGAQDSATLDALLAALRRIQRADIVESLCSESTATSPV
UniProt Q9Z0W1, residues 32-427: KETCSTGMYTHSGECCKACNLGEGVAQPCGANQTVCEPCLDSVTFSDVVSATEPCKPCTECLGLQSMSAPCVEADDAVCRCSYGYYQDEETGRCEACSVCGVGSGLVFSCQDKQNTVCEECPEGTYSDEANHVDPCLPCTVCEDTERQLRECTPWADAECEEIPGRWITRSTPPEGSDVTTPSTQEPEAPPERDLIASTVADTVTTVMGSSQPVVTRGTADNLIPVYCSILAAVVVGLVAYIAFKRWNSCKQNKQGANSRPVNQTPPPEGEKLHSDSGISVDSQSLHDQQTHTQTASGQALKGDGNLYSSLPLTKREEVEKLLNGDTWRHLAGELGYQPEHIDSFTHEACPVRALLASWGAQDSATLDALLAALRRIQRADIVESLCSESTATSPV
UniProt P58801: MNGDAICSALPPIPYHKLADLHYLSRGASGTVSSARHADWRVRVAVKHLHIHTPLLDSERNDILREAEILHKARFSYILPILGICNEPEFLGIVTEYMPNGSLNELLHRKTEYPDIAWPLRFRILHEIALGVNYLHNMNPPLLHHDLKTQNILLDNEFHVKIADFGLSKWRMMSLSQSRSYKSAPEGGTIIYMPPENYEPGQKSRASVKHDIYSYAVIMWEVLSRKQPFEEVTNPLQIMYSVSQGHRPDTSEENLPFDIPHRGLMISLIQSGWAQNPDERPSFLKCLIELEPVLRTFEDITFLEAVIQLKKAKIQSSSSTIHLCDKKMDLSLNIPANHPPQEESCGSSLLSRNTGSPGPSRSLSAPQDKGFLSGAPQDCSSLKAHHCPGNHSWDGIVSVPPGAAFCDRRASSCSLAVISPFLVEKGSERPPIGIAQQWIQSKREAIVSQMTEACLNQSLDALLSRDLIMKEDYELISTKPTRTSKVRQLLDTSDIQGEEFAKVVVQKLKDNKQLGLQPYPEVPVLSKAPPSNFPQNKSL

The target of experiment [1] is p75 neurotrophin receptor (p75^NTR), wild type, transfected (UniProt P07174). As to the kind of experiment: co-IP; MEF cells transfected with p75^NTR, endogenous RhoGDI and RIP2; untreated or 30 min BNN27 (1-100 nM), DHEA (100 nM), NGF (100 ng/ml) or E2 (100 nM) in serum-free medium; lysis in 1% Nonidet P-40, 20 mM Tris pH 7.4, 137 mM NaCl; IP with anti-p75^NTR overnight at 4°C, protein A-Sepharose; blot for RhoGDI or RIP2.

Experiment [2] deals with p75 neurotrophin receptor (p75^NTR), endogenous in mouse cerebellar granule neurons (mouse (endogenous in CGNs)) (UniProt Q9Z0W1). As to the kind of experiment: co-IP; primary cerebellar granule neurons from p75^NTR wt mice, all proteins endogenous; 20 min (RIP2) or 30 min (RhoGDI) with BNN27, DHEA or NGF; IP of p75^NTR, blot for RIP2 or RhoGDI.

Results are given in words; binding and its absence hold for the method and conditions named. Binding seen in cells or lysates may run through a third protein. Some binding calls cover weakened binding; strength is not graded here.

For the substance “receptor-interacting protein 2 (RIP2), endogenous (from UniProt P58801 1-539)”, the binding result in experiment [1] and in experiment [2] was “binds” throughout.
